Data as given in paper PMC7819943, “Rice protein-binding microarrays: a tool to detect cis-acting elements near promoter regions in rice”.
Some of the results follow.

Protein sequences, listed by entry. Tags and fused reporters are not part of them.
UniProt Q0JBA9, entry or part of it: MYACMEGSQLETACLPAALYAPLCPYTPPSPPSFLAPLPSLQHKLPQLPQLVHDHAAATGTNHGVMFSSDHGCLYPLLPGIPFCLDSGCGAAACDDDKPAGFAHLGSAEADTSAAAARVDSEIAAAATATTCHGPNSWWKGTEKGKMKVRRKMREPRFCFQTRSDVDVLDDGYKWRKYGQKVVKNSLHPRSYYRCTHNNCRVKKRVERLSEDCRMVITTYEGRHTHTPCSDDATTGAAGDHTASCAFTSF

Biological target: OsWRKY34 (Oryza sativa, UniProt Q0JBA9 1-250)
Test: protein-binding microarray (RPBM); PBS, 2% BSA, 51.3 ng/ul salmon testes DNA, 50 uM zinc acetate, 200 nM TF, 25 C, 1 h; high values mean tight binding
Details: protein: recombinant; tags: N-terminal polyhistidine and DsRed monomer fusion (pET32a); label: CyDye5-dUTP incorporated in the synthesized complementary strand; 3' TTTTT single-stranded linker to array surface; dsDNA, one strand shown
Outline: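 A custom Agilent array was converted to double-stranded form by primer extension with Cy5-dUTP and blocked with 2% BSA. Protein at 200 nM in PBS with 2% BSA, salmon testes DNA and 50 µM zinc acetate was applied for 1 h at 25 °C, followed by washing. The proteins were polyhistidine–DsRed N-terminal fusions of transcription factors, expressed in E. coli BL21-CodonPlus and Ni–NTA-purified. The binding signal is per-feature fluorescence intensity (arbitrary units) from an Axon 4000B scanner.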

Compared with “CCGCTTTTCTTCCAGTCTTTCTCCTCCGTCTCTCATCCTCCGGAGTCACCTAGTGCAG”, “TGATTTAGTTTGTGTTCTGTCATGTATAACCCTTGTTTCTCGGAGTCACCTAGTGCAG” is lower in binding signal: 11000 fluorescence intensity (a.u.) for the first, 8920 fluorescence intensity (a.u.) for the second.

Going from “AAAACCGGAACTCTCACCCTCAACCATCTCACTGTTGACACGGAGTCACCTAGTGCAG” to “GTTTTCTCGCTTTTTTTTCCTTTCCTACGGACGACGGAAACGGAGTCACCTAGTGCAG”, the binding signal rises from 9100 fluorescence intensity (a.u.) to 12900 fluorescence intensity (a.u.).

Going from “ATTTGAGTTCAATTTTTCTATGGTTGGTTCTTGTGTGTCCCGGAGTCACCTAGTGCAG” to “AAAATCCTTTTATGTCCTTGCCGTTGAATTGTTATAATTTCGGAGTCACCTAGTGCAG”, the binding signal rises from 8160 fluorescence intensity (a.u.) to 8780 fluorescence intensity (a.u.).

Compared with “TACTCTGCCTCTCGTTGTTGTCTTCTTCTTCTTGCCTTCTCGGAGTCACCTAGTGCAG”, “GTCCCACATATATGTTTTTAATTCAAATGCCACCTAAGCGCGGAGTCACCTAGTGCAG” is lower in binding signal: 9160 fluorescence intensity (a.u.) for the first, 8490 fluorescence intensity (a.u.) for the second.

Compared with “TGGGGATGGCGGAGGTTAGCGGCGCGCTTTTTTTTCTATTCGGAGTCACCTAGTGCAG”, “GGCCCGAAACGCATACTCTGCCGGCGTACACATGTCACAGCGGAGTCACCTAGTGCAG” is lower in binding signal: 14500 fluorescence intensity (a.u.) for the first, 9100 fluorescence intensity (a.u.) for the second.

First: AGTCCTTATTACCGTTTGATCATCAGAGCATCCACACCCACGGAGTCACCTAGTGCAG
Second: ATTTCAATCTCTATAGGTTCTCTGATCTCGTTCGCAATCCCGGAGTCACCTAGTGCAG
The binding signal of the first is lower: 8590 fluorescence intensity (a.u.) for the first, 9280 fluorescence intensity (a.u.) for the second.

Going from “CTTTTATACGCGCCAGTCACGCCGCCGCTCGTCCCGTTTCCGGAGTCACCTAGTGCAG” to “AGTAATGACGACCTCTTTATATTTTAGACTTTTACTAACACGGAGTCACCTAGTGCAG”, the binding signal falls from 11100 fluorescence intensity (a.u.) to 8030 fluorescence intensity (a.u.).

First: GAGGAGACGCTCATATGAGTGGGTTGAGGGTGGGCCAGTGCGGAGTCACCTAGTGCAG
Second: CGAGGGAGGGGAGGCGGCGGAGGCGAGAGAGGAGAGGGGACGGAGTCACCTAGTGCAG
The binding signal of the first is lower: 8620 fluorescence intensity (a.u.) for the first, 11000 fluorescence intensity (a.u.) for the second.

First: ATTTTTTTTGTTGCCAACAACTTTTGGATAATACGGATCTCGGAGTCACCTAGTGCAG
Second: TGTTGTTTTTTTTTTTTTGGTCTCGCGAAATCCAAAGACCCGGAGTCACCTAGTGCAG
The binding signal of the first is higher: 8250 fluorescence intensity (a.u.) for the first, 8200 fluorescence intensity (a.u.) for the second.

First: TTTTATGCTCTCAGATGTGTGTGATCTGAATTCCTTTTTTCGGAGTCACCTAGTGCAG
Second: AGTTGATTCGTTGACTTGTTCTTTGCGCGATTAGGAAAAGCGGAGTCACCTAGTGCAG
The binding signal of the first is higher: 10200 fluorescence intensity (a.u.) for the first, 9250 fluorescence intensity (a.u.) for the second.

First: GGCGGCGGAGGAGGAGGAGGCGCGAGGGGAGGCGAGCATGCGGAGTCACCTAGTGCAG
Second: GGATCACTACATTCAACAAAATATGTACCGTCATATCCCACGGAGTCACCTAGTGCAG
The binding signal of the first is lower: 8150 fluorescence intensity (a.u.) for the first, 8160 fluorescence intensity (a.u.) for the second.

First: GCTGTTATTGGTTTCAAATTTTCATCTAGCTCCTAATTGTCGGAGTCACCTAGTGCAG
Second: AAATCCCTCTGCATGTTTGCTACTCGCTTCGTCCCACACGCGGAGTCACCTAGTGCAG
The binding signal of the first is higher: 8390 fluorescence intensity (a.u.) for the first, 8030 fluorescence intensity (a.u.) for the second.

First: TTTCATTCACGTGCGGCCCAAGAATGGGATTGCGACTTTCCGGAGTCACCTAGTGCAG
Second: GAGTACTATACGCTACTACTCCTCTAATGCTTCATCTTTGCGGAGTCACCTAGTGCAG
The binding signal of the first is lower: 8190 fluorescence intensity (a.u.) for the first, 8990 fluorescence intensity (a.u.) for the second.

Compared with “ATTCCTGAACGCTCAATGCCTCATGTCGTCGACTAGCCGGCGGAGTCACCTAGTGCAG”, “TGCACTGTTTAACCACTCGTCTTATTTAAAAATTTTTTAGCGGAGTCACCTAGTGCAG” is higher in binding signal: 9140 fluorescence intensity (a.u.) for the first, 11200 fluorescence intensity (a.u.) for the second.

Going from “CAAGTTCTGTCTCGATACCTCGATCACCTTTTCCTTGTCACGGAGTCACCTAGTGCAG” to “TCCAACATTTGACCATTCATCTTATTTGAAATTTTTTTATCGGAGTCACCTAGTGCAG”, the binding signal falls from 9170 fluorescence intensity (a.u.) to 8060 fluorescence intensity (a.u.).

First: GTATAATTATGAACTTCGGATCTTGACTTTTGCCGTGCATCGGAGTCACCTAGTGCAG
Second: GCCCTTTTCACGGTTTTTCCTGATCTTTCTGGGCTTTCTCCGGAGTCACCTAGTGCAG
The binding signal of the first is lower: 8780 fluorescence intensity (a.u.) for the first, 18800 fluorescence intensity (a.u.) for the second.

First: CTCCTCCGCGCGCGCCGCCTCGACGACTTCTTCGCGCTCCCGGAGTCACCTAGTGCAG
Second: TGTGCAGCTGACATATGGGCCCTATGTACTTTTTTATTTTCGGAGTCACCTAGTGCAG
The binding signal of the first is higher: 10800 fluorescence intensity (a.u.) for the first, 9100 fluorescence intensity (a.u.) for the second.

Going from “GCTTACGTCCACACTACTTTACTCTCCGTTGGACCAAATCCGGAGTCACCTAGTGCAG” to “CTTTCTCAGGCAGAGGACGGCGCGGGTGGGCGGCGGAGCACGGAGTCACCTAGTGCAG”, the binding signal rises from 8940 fluorescence intensity (a.u.) to 9390 fluorescence intensity (a.u.).

Going from “TCGGACGGCGGCGATGCAAATCTCCGTCTGTTAATGAAGACGGAGTCACCTAGTGCAG” to “ACTAACTCCACCCATACCACCTTTGTTTTCCCCATGAAAACGGAGTCACCTAGTGCAG”, the binding signal falls from 8980 fluorescence intensity (a.u.) to 8470 fluorescence intensity (a.u.).

Compared with “TTCCGACGGAAACTGCCCTTATCATTTCCGATTCCGTATCCGGAGTCACCTAGTGCAG”, “CCTTTTTTATTCTTGTGCATAAGCCTAAAATAACTAGTTACGGAGTCACCTAGTGCAG” is lower in binding signal: 9140 fluorescence intensity (a.u.) for the first, 8130 fluorescence intensity (a.u.) for the second.

Compared with “TGCATGCGTGCTCACGTTTTGGGTGGGTGAGGGACAGAGGCGGAGTCACCTAGTGCAG”, “CGATCCAGCCACCACCATGTTCATCTCCATCGTTGGCTGGCGGAGTCACCTAGTGCAG” is lower in binding signal: 9450 fluorescence intensity (a.u.) for the first, 9370 fluorescence intensity (a.u.) for the second.

Compared with “GGCCGTCGTACGTCCCGTACTTCATCGTCGCACCCTGAAACGGAGTCACCTAGTGCAG”, “AATTTACCATCACCCCAAGTGCATCACTAGCATACATTATCGGAGTCACCTAGTGCAG” is higher in binding signal: 8790 fluorescence intensity (a.u.) for the first, 11600 fluorescence intensity (a.u.) for the second.

First: ACGCTGGCCCTCTCAACGGCTTGGCTTTCTCTCTCTCTTTCGGAGTCACCTAGTGCAG
Second: GACTCTATACTCTACTTCTAATATTCCTTATTTTTTAATTCGGAGTCACCTAGTGCAG
The binding signal of the first is lower: 8960 fluorescence intensity (a.u.) for the first, 12400 fluorescence intensity (a.u.) for the second.

First: TCTGGTTAGGCGTCAAATGATGGTGTTCGTGTCTTCTATTCGGAGTCACCTAGTGCAG
Second: AGGGCTATATTCTCAGATTCATCATGATTCTTTCGTTTATCGGAGTCACCTAGTGCAG
The binding signal of the first is higher: 10400 fluorescence intensity (a.u.) for the first, 9190 fluorescence intensity (a.u.) for the second.

Going from “ACGCCCGCCAGCAGCAACCACTTCCCACTCACCACGCATGCGGAGTCACCTAGTGCAG” to “ACTGAGCCTATATTGCCCTTATTTCATACTTATATGCTAGCGGAGTCACCTAGTGCAG”, the binding signal rises from 8880 fluorescence intensity (a.u.) to 9340 fluorescence intensity (a.u.).

Going from “AAATTCTCATCCAATCGTCTCTATTCTCTCTCATTTTATCCGGAGTCACCTAGTGCAG” to “TTCATATTTTTTTACCCTTTTTGTCCACCTCTGTTTTAGACGGAGTCACCTAGTGCAG”, the binding signal falls from 11400 fluorescence intensity (a.u.) to 8240 fluorescence intensity (a.u.).

First: CCAGAACCTGTTTTCCAGTTCATCCCGTTGCCGGAGGGGTCGGAGTCACCTAGTGCAG
Second: TTAGAATCCTACGTTTTTTCATTCCTACGATTCAAAGGGGCGGAGTCACCTAGTGCAG
The binding signal of the first is lower: 9440 fluorescence intensity (a.u.) for the first, 10500 fluorescence intensity (a.u.) for the second.
